Experimental data taken from the supplement of paper PMC10060354, “Discovery of a small molecule ligand of FRS2 that inhibits invasion and tumor growth” (Cellular Oncology, 2022).
Single values are uncertain, as repeats are few or missing.

Sequences of proteins named here, by UniProt entry; tags and fusion partners are left off. A change or cut given only in a name is not applied to a line headed by its entry.
UniProt Q12857, whole entry: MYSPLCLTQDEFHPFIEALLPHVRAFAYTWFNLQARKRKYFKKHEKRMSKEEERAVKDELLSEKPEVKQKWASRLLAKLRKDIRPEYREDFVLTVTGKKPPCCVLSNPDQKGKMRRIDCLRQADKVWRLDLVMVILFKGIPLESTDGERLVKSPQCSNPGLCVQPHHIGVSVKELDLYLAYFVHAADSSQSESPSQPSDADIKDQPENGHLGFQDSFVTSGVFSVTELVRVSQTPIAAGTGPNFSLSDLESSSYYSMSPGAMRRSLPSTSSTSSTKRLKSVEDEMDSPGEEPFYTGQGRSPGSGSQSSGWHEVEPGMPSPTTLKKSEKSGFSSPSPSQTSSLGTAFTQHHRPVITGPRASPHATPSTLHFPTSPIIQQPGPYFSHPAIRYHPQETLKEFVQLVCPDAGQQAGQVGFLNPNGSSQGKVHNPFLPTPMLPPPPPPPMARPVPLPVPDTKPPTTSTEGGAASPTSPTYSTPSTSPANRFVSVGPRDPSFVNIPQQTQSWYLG
UniProt Q96BX8: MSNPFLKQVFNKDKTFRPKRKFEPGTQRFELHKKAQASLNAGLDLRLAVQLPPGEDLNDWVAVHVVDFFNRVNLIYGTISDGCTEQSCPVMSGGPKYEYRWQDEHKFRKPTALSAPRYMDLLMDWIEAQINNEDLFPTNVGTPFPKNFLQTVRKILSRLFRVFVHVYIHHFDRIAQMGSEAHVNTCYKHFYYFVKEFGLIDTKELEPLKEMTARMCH
UniProt Q9H1J7: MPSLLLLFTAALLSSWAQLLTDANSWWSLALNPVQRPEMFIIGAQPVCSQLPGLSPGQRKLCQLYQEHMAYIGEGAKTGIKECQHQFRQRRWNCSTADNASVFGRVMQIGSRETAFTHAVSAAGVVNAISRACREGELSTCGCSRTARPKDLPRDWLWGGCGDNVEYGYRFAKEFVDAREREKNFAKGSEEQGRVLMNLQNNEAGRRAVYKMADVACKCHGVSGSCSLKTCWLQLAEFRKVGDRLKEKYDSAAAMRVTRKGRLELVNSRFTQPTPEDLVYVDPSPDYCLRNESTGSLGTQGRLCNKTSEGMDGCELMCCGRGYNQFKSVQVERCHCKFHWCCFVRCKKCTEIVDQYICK
UniProt Q07157: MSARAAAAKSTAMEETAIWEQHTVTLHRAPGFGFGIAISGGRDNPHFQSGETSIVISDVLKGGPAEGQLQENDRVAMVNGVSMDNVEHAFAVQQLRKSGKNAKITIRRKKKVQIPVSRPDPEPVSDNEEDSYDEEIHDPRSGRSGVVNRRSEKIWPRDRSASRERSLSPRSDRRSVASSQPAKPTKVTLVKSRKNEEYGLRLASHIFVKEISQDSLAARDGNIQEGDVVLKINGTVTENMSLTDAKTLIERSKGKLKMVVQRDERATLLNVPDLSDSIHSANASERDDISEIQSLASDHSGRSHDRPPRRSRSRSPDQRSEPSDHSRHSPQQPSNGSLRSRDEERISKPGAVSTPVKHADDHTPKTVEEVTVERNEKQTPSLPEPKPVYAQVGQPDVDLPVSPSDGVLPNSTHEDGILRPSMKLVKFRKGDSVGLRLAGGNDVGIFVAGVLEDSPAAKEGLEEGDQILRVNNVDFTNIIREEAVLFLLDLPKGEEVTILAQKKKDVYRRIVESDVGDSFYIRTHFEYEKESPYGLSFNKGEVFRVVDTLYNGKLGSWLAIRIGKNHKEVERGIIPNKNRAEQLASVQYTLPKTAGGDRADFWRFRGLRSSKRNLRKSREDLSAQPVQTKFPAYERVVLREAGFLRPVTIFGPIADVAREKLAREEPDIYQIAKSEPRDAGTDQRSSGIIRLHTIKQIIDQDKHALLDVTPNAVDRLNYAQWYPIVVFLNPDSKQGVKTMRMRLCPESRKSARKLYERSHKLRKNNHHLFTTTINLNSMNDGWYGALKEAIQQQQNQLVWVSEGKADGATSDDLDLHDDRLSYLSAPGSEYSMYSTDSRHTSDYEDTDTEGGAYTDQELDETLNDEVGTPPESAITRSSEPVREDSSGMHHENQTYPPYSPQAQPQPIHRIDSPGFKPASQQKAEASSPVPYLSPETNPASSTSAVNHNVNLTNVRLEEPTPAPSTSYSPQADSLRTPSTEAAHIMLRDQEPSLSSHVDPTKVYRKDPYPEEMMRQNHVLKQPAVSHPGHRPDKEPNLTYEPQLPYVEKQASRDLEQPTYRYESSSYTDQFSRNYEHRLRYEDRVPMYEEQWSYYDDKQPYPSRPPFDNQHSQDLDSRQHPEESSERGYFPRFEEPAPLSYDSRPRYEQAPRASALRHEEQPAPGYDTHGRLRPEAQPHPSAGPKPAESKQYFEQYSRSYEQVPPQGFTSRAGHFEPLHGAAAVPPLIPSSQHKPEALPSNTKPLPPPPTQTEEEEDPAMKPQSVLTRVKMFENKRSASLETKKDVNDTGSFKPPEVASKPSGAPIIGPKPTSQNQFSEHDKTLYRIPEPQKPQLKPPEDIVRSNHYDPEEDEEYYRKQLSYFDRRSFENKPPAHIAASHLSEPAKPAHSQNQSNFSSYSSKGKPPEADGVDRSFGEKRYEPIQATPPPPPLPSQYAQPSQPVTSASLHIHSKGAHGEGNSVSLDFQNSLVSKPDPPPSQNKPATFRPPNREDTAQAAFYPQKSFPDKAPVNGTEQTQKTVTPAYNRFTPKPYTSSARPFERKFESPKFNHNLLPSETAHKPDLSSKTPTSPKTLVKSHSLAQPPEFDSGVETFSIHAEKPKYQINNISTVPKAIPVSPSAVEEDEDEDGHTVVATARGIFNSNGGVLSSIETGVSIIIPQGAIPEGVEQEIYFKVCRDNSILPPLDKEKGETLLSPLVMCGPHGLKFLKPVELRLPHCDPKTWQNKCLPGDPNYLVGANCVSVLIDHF
UniProt Q14376: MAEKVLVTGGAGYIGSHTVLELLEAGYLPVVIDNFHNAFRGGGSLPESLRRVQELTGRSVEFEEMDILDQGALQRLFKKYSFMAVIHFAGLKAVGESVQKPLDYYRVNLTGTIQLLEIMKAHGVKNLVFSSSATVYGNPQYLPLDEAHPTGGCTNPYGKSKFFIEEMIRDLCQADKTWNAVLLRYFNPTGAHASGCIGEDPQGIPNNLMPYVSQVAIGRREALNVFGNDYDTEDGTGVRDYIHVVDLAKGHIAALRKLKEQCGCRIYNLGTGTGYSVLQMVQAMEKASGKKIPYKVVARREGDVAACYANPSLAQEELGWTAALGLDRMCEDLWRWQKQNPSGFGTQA
UniProt P29762, whole entry: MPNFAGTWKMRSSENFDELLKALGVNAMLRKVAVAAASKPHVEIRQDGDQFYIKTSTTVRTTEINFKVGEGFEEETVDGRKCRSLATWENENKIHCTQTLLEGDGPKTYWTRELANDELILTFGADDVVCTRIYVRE
UniProt O15258: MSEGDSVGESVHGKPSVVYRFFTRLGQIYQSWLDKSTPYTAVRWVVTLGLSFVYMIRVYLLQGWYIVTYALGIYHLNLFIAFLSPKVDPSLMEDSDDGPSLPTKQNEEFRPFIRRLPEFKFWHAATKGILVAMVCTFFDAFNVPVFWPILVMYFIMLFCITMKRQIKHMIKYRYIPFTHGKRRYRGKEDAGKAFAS
UniProt P23526: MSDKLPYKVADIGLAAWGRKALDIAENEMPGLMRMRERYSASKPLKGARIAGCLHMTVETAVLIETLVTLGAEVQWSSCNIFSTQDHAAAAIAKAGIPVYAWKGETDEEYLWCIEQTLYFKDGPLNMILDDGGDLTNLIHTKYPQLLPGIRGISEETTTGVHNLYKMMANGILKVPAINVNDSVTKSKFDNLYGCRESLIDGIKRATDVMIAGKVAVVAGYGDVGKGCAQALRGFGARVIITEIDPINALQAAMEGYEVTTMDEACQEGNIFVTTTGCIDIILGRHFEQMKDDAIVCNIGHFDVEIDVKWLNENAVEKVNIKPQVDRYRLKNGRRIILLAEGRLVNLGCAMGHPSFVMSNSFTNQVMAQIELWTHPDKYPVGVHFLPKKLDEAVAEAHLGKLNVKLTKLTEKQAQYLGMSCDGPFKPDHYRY
UniProt P30566: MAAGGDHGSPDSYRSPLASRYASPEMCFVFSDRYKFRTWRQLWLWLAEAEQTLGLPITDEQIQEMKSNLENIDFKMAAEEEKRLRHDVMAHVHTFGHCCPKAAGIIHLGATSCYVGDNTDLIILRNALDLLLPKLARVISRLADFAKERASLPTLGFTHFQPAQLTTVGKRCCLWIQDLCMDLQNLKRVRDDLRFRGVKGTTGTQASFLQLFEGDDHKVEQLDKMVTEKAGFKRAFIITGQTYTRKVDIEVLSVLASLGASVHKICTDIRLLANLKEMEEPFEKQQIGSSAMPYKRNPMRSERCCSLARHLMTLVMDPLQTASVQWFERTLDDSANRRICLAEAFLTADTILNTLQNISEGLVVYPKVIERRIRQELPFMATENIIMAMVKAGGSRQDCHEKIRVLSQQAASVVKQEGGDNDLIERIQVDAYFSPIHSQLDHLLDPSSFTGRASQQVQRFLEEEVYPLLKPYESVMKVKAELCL
UniProt Q9NTX5: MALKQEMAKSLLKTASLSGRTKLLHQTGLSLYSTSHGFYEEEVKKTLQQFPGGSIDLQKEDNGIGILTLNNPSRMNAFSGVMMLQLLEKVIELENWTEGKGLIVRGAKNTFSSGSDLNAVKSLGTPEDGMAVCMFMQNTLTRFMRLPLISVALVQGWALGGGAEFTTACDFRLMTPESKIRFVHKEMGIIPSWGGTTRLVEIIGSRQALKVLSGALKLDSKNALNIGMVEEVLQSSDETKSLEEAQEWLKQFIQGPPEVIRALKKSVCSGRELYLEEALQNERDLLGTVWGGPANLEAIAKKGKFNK
UniProt Q8TAD8: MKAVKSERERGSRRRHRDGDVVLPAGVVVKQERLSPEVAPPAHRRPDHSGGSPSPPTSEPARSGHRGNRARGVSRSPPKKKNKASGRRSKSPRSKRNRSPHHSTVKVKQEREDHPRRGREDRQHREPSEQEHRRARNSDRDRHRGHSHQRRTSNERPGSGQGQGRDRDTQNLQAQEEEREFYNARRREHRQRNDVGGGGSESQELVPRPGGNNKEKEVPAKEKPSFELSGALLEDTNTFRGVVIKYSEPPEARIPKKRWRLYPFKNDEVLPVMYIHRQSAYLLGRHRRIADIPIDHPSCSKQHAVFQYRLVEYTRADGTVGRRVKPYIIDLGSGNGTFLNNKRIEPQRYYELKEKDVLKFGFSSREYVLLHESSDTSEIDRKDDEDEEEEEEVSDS
UniProt Q9NX46: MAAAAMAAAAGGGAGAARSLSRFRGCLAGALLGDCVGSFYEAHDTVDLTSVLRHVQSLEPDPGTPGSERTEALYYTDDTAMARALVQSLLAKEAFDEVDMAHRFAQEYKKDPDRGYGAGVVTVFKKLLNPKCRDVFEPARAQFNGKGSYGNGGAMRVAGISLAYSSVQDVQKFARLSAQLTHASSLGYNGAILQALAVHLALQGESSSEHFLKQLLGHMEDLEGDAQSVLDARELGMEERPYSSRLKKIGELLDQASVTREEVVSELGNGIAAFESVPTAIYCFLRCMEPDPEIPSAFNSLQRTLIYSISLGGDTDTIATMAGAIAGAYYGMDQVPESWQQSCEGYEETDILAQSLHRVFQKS
UniProt Q96AQ6: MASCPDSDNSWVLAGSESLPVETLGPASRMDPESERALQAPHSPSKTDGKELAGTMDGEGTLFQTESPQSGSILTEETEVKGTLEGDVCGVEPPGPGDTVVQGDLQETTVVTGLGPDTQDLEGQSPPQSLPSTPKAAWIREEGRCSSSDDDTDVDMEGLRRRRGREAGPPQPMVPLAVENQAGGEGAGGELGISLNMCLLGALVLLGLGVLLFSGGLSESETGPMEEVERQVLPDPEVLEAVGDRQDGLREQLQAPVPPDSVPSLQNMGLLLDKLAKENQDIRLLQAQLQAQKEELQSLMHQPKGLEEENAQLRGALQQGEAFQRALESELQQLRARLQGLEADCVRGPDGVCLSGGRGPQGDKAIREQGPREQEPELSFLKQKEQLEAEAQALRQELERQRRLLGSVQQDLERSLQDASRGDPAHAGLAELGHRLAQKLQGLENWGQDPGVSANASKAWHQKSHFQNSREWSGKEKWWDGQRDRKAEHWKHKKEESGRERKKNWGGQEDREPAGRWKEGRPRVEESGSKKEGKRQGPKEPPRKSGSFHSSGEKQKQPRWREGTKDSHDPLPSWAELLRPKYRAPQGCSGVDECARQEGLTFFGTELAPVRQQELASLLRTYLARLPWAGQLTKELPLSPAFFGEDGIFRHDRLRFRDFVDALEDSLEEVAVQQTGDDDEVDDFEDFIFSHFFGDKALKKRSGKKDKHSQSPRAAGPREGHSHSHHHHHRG
UniProt Q9UNQ2: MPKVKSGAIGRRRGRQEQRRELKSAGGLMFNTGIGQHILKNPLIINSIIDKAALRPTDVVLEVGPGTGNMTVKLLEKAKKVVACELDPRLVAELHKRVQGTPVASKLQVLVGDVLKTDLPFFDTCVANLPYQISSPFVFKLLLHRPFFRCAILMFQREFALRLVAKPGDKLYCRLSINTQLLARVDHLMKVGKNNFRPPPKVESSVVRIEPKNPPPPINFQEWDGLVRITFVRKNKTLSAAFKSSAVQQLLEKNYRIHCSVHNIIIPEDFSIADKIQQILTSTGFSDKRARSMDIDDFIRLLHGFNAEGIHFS

Compound: [O-][N+](C(C1=C(C(O)=C2)NC(C(C=C3)=CC=C3Cl)C4C1C=CC4)=C2Cl)=O
Assay: melting temperature shift (compound 7 minus DMSO); higher = compound stabilises the protein
Settings: 10 µM
Method: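 Thermal proteome profiling (TMT mass spectrometry) in intact DAOY medulloblastoma cells or DAOY lysates treated with 10 µM compound 7 or DMSO, heated at 10 temperatures from 40.5 to 73.8 °C for 3 min. Melting curves were fitted with the Bioconductor TPP package, and the melting point difference between compound and vehicle is reported per protein (single curve per condition).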

[1] = system: DAOY cell lysate, treatment time: 20 min, 4 °C
[2] = system: intact DAOY cells, treatment time: 90 min, 37 °C

Target	melting temperature shift [1] [°C]	melting temperature shift [2] [°C]
MED15 (UniProt Q96RN5)	0.588	1.39
NFIA (UniProt Q12857)	–	5.98
NABP2 (UniProt Q9BQ15)	-0.00379	–
KLC1 (UniProt Q07866)	-0.485	-0.433
PARVA (UniProt Q9NVD7)	0.0574	-0.266
CCAR2 (UniProt Q8N163)	-0.866	0.102
UniProt Q03013	–	-2.36
UniProt Q96BX8	0.369	-0.518
FADS1 (UniProt O60427)	2.49	1.94
MRPL37 (UniProt Q9BZE1)	2.08	-0.72
FAT1 (UniProt Q14517)	–	1.09
UniProt Q9H1J7	–	-4.99
TJP1 (UniProt Q07157)	0.35	-0.294
IMPDH2 (UniProt P12268)	-1.01	-1.85
NAA40 (UniProt Q86UY6)	-0.423	0.596
GALE (UniProt Q14376)	0.396	0.842
C5ORF51 (UniProt A6NDU8)	0.115	1.48
AP4E1 (UniProt Q9UPM8)	-1.38	0.319
ACOT9 (UniProt Q9Y305)	0.241	0.442
APOL2 (UniProt Q9BQE5)	1.96	-1.35

Target	melting temperature shift [1] [°C]	melting temperature shift [2] [°C]
UniProt P29762	-0.28	0.426
UniProt Q06830	0.101	0.284
MB21D2 (UniProt Q8IYB1)	1.3	1.21
UniProt Q8N6G5	–	-1.59
UniProt P02649	-3.23	–
RER1 (UniProt O15258)	1.13	–
UniProt Q8TD47	–	-0.64
PACSIN2 (UniProt Q9UNF0)	-1.49	-0.271
MORC2 (UniProt Q9Y6X9)	-2.67	-3.39
MAP4K3 (UniProt Q8IVH8)	-1.27	–
UniProt O15075	0.452	-1.3
RSBN1 (UniProt Q5VWQ0)	2.04	-2.47
ZNF143 (UniProt P52747)	2.86	–
NUDT15 (UniProt Q9NV35)	–	0.748
RPL12 (UniProt P30050)	-0.308	1.49
NOP9 (UniProt Q86U38)	1.09	–
AHCY (UniProt P23526)	-0.707	-0.591
ATP2B4 (UniProt P23634)	0.914	-1.76
CTTN (UniProt Q14247)	-3.66	–
ADSL (UniProt P30566)	-1.8	-1.17

Target	melting temperature shift [1] [°C]	melting temperature shift [2] [°C]
NOP2 (UniProt P46087)	1.17	1.54
RAB8B (UniProt Q92930)	0.737	1.19
ECHDC1 (UniProt Q9NTX5)	0.387	1.31
CDKN2AIP (UniProt Q9NXV6)	0.909	0.0566
DIEXF (UniProt Q68CQ4)	-0.302	-0.301
UniProt Q8TAD8	-1.44	-3.09
RPRD2 (UniProt Q5VT52)	-0.958	0.207
HADH (UniProt Q16836)	0.883	0.302
PRKRIP1 (UniProt Q9H875)	0.174	–
UniProt P57735	–	-2.41
ADPRHL2 (UniProt Q9NX46)	0.588	0.241
PBXIP1 (UniProt Q96AQ6)	–	-1.07
DIMT1 (UniProt Q9UNQ2)	0.263	-0.842
RRP1B (UniProt Q14684)	0.658	–
UniProt Q96CG8	0.024	0.539
UniProt Q9NXL2	–	1.5
SHQ1 (UniProt Q6PI26)	0.398	1.67
UniProt A5D8V7	–	-0.225

2 entries drawn at random from those above, as already listed:
Target	melting temperature shift [1] [°C]	melting temperature shift [2] [°C]
PBXIP1 (UniProt Q96AQ6)	–	-1.07
RPL12 (UniProt P30050)	-0.308	1.49
